At least one structure is not confirmed: it was looked up by name or label, or the drawing left a doubt.
Test system: SLC45A3-ELK4 mRNA in LNCaP cells
Assay: Hormonal treatment of LNCaP cells, quantitative RT-PCR (TAQMAN) of SLC45A3-ELK4 fusion transcript
Type: cell-based, human
Conditions: 1 nM R1881 in presence of 10 μM flutamide
Experimental: FIGS. 4a-4c. Androgen stimulation of LNCaP cells and induction of SLC45A3-ELK4 (FIG. 4a), endogenous ELK4 (FIG. 4b) mRNA and KLK3 (PSA) mRNA (FIG. 4c). Bar charts are the average fold induction in LNCaP cells treated with 1nM R1881 in the absence (black bars) or presence (gray bars) of 10 μM flutamide at the indicated time points. For flutamide treatment cells were pre-treated 2 hours with 10 μM flutamide, medium was removed and the fresh medium plus 1 nM R1881 plus 10 μM flutamide were given for the indicated time points. All experiments were run in triplicates (standard deviation indicated by the error bars).
Quantitative RT-PCR using TAQMAN technology. To quantify SLC45A3-ELK4 and endogenous ELK4 transcripts, custom designed primers and probes (SLC45A3-ELK4: primers in SLC45A3 exon 1 and ELK4 exon 2, probe in ELK4 exon 2) were employed in (ELK4, Hs00360812_m1) TAQMAN Gene Expression Assays (Applied Biosystems, Foster City, Calif.) for improved sensitivity and specificity of detection. […] Each target was run in triplicate and expression levels were calculated using the comparative Ct method (ABI Bulletin 2, Applied Biosytems) with TCFL1 as a reference gene and given as fold change over the average expression levels of benign samples. […]

With `CC(C)C(=O)Nc1ccc([N+](=O)[O-])c(C(F)(F)F)c1` [Flutamide] the “effect on R1881 induction of SLC45A3-ELK4” value was “abrogated”.

From patent US9458213B2, “Compositions and methods for diagnosing prostate cancer based on detection of SLC45A3-ELK4 fusion transcript” (CORNELL UNIVERSITY, priority 2009, dated 2016)
